“And” between values parts separate entries of the source, which are not always exact repeats. Equal values may be shown once. The list shows a part of the results. The main result of the screen is listed elsewhere. These columns were measured beside it and carry no call. The list favours compounds with an active or inconclusive main result. Potencies come from curve fits of mixed quality, noted in brackets.

A word on the AC50: it is the concentration at which the activity in the assay is half-maximal.

This experiment is described as follows: qHTS assay for small molecule antagonists of peroxisome proliferator-activated receptor gamma signaling (AID 588537). The conditions noted are these: HEK293 PPARg-UAS-bla, beta-lactamase ratio, antagonist mode; measured here: W460 blue channel. An outline of the steps:
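Step one: plate 3000 HEK293 UAS-bla cells per well in medium with 1% stripped serum and hold 6-6.5 h at 37 C. Step two: add compound and 50 nM agonist for 16 h. Step three: CCF4 loading, fluorescence read.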
Take `OC[C@H]1O[C@@H]2O[C@H]3[C@H](O)[C@@H](O)[C@@H](O[C@H]4[C@H](O)[C@@H](O)[C@@H](O[C@H]5[C@H](O)[C@@H](O)[C@@H](O[C@H]6[C@H](O)[C@@H](O)[C@@H](O[C@H]7[C@H](O)[C@@H](O)[C@@H](O[C@H]1[C@H](O)[C@H]2O)O[C@@H]7CO)O[C@@H]6CO)O[C@@H]5CO)O[C@@H]4CO)O[C@@H]3CO`: the half-maximal activity concentration (AC50) is 50.1 µM [rising, single point].
On to `NC(=O)c1ccccc1O`, for which the AC50 was 70.8 µM [rising, single point].
As for `CCCCOC(=O)/C=C\C(=O)OCCCC`, the half-maximal activity concentration (AC50) was 28.2 µM [falling, full curve, poor fit].
For the compound `NC(=O)NC(N)=O`, the AC50 is 70.8 µM [rising, single point].
The result for `CN(C)Cc1cc(CN(C)C)c(O)c(CN(C)C)c1` reads 0.0178 µM [falling, full curve, poor fit]; that for `CC(N)CN` (stereo not given), 50.1 µM [rising, single point]; that for `Cc1cc(C)nc(NS(=O)(=O)c2ccc(N)cc2)n1`, 50.1 µM [rising, single point] and 5.62 nM [falling, full curve, poor fit].
In the case of `CCCCC(=O)N(C)C`, the AC50 was 50.1 µM [rising, single point].
The value for `C1CCCNCC1` was 44.7 µM [rising, single point].
With `C[Si](Cl)(Cl)c1ccccc1`, the AC50 was 8.91 µM [falling, full curve, poor fit].
Take `COc1ccc([N+](=O)[O-])cc1N`: the AC50 was 50.1 µM [rising, single point] and 3.16 nM [falling, full curve, poor fit].
In the case of `C=CCNC(N)=S`, the AC50 was 50.1 µM [rising, single point].
The value for `C=C(C#N)C(=O)OCC` was 70.8 µM [rising, single point].
For the compound `O=NO`, the concentration at half-maximal activity (AC50) is 50.1 µM [rising, single point].
Consider `CCOCCO`, for which the half-maximal activity concentration (AC50) was 50.1 µM [rising, single point].
Regarding `O=C1c2c(O)cccc2Cc2cccc(O)c21`, the concentration at half-maximal activity (AC50) was 63.1 µM [rising, single point].
The result for `Cc1ccc2cccnc2c1` reads 63.1 µM [rising, single point]; that for `OC[C@@H](O)[C@@H](O)[C@H](O)[C@@H](O)CO`, 0.000891 µM [falling, full curve, poor fit]; that for `c1ccccc1`, 1260 µM [falling, single point].
For the compound `CC(C)(C)c1ccc(C(=O)O)cc1`, the concentration at half-maximal activity (AC50) is 0.0282 µM [falling, full curve, poor fit].
Consider `CC(=O)c1cccc([N+](=O)[O-])c1`, for which the half-maximal activity concentration (AC50) is 44.7 µM [rising, single point].
For `Nc1cccc(O)c1`, the AC50 was 63.1 µM [rising, single point].
`CCCCCCCCCCCCCCN(C)C`: the AC50 was 0.00282 µM [rising, full curve, poor fit].
The result for `O=C(Cl)c1ccc([N+](=O)[O-])cc1` reads 50.1 µM [rising, single point]; that for `ClCCl`, 50.1 µM [rising, single point].
Take `C=Cc1ccccc1Cl`: the half-maximal activity concentration (AC50) was 50.1 µM [rising, single point].
For `CC(C)=CCC[C@@H](C)[C@H]1CC[C@@]2(C)C3=C(CC[C@]12C)[C@@]1(C)CC[C@H](O)C(C)(C)[C@@H]1CC3`, the AC50 is 0.0158 µM [falling, full curve, poor fit].
The result for `CC/C=C1/OC(=O)c2ccccc21` reads 63.1 µM [rising, single point].
The result for `CCCCCCCC/C=C\CCCCCCCC(=O)OC[C@@H](O)[C@H]1OC[C@H](O)[C@H]1O` reads 22.4 µM [rising, full curve, poor fit].
As for `C=CCCCCCCCCCC`, the AC50 was 0.00158 µM [falling, full curve, poor fit].
In the case of `O=C(O)c1ccc2c(c1)C(=O)OC2=O`, the concentration at half-maximal activity (AC50) is 1.58 µM [falling, full curve, poor fit].
For the compound `CCCCCCCC(=O)O`, the half-maximal activity concentration (AC50) is 0.00562 µM [falling, full curve, poor fit].
For the compound `Cc1ccc(C(C)C)c(O)c1`, the AC50 is 0.0282 µM [falling, full curve, poor fit].
Regarding `Cc1cc(C)cc([N+](=O)[O-])c1`, the AC50 was 50.1 µM [rising, single point].
The result for `CC(=O)c1ccc(Cl)c(Cl)c1Cl` reads 25.1 µM [falling, partial curve, poor fit].

Source of the values: PubChem BioAssay (NCATS).
